Test results from patent publication US20200368370A1.
No constants are given. Whether binding was seen depends on the method and setting. Some binding calls cover weakened binding; strength is not graded here.

Amino acid sequences for entries named in this document (tags omitted). Residues count along the entry.
UniProt P01942, residues 2-142: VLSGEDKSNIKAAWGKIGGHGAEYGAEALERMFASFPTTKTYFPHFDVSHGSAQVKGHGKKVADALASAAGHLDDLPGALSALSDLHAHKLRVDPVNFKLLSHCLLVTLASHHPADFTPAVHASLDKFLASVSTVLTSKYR
UniProt P68871, residues 2-147: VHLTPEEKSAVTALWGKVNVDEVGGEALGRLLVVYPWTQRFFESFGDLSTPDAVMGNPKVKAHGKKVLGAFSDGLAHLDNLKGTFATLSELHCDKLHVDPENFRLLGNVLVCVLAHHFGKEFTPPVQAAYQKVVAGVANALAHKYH

Biological target: murine α globin (mouse) (UniProt P01942)
Test: isoelectric focusing of RBC lysates

binding: binds
Substance: wild-type human β globin (from UniProt P68871 2-147)
